Measurements as given in US20190106697A1, “Inhibition Of Lactate Transporters For Use In The Treatment Of Inflammatory Diseases” (Queen Mary University of London, priority 2014, published 2019).
At least one structure is not confirmed: it was looked up by name or label, or the drawing left a doubt.

Assays:
naive T-cells = assay: In vitro chemotaxis of naive T-cells towards CCL19/21; format: cell-based, mouse; settings: CCL19/21 200 ng/ml each; Rapamycin 200 nM, 2-DG 1 mM, Metformin 2 mM
Text: (§1) T-cell isolation, in-vitro activation and subset enrichment: T-cells were isolated from C57BL/6 murine lymph nodes and activated for 3 to 5 days with plate bound anti-CD3 and anti-CD28 antibodies (BioLegend), and IL-2 (PeproTech). CD4+ and CD8+ subsets were enriched with commercially available CD4+ and CD8+ T-cell isolation kits according to the manufacturer's instructions (Easysep, Invitrogen) either prior or post activation according to experimental settings. Chemokinesis assays: Chemokinesis assays were performed in 5 μm transwell inlays. In some experiments, T-cells were pre-treated overnight with a number of drugs purchased from Calbiochem: Rapamycin (200 nM), 2-DG (1 mM), Metformin (2 mM). […] 3×10^6 lymphocytes were seeded in the upper transwell chamber; chemokines were added to the lower chamber: CXCL10 (300 ng/ml), CCL5 (50 ng/ml), CCL19/21 (200 ng/ml of each chemokine). Migrated T-cells were counted with a hemocytometer 2, 4 and 6 hours after seeding and % of migrated cells was calculated.

activated CD4+ T-cells [1] = assay: In vivo peritoneal recruitment model (CXCL10 i.p.) of pre-treated activated CD4+ T-cells; settings: cells pre-treated with Rapamycin 200 nM, 2-DG 1 mM, Metformin 2 mM; CXCL10 120 ng/mouse i.p.
Protocol: In vivo peritoneal recruitment model: All the in vivo experiments were conducted under the UK Home Office regulation (PPL 70/7443). Activated T-cells (5×10^6/mouse) were pre-treated overnight with Rapamycin (200 nM), 2-Deoxyglucose (1 mM) or Metformin (2 mM), then labelled with the fluorescent cell dye DDAO (Invitrogen) and injected intravenously into syngeneic female C57BL/6 mice that had 3 hours prior received an intraperitoneal injection of CXCL10 (120 ng/mouse). 24 hours after injection, mice were sacrificed and spleen and peritoneal lavage were harvested. T-cells were stained for surface markers (CD4 and CD8, ebiosciences) and analysed by FACS. Cells were first gated on CD4 and subsequently analysed for DDAO positivity. This method was used in FIG. 3G and S3E.

activated CD4+ T-cells [2] = assay: In vitro chemokinesis of activated CD4+ T-cells towards CXCL10 (transwell); format: cell-based, mouse; settings: pre-treated overnight: Rapamycin 200 nM, 2-DG 1 mM, Metformin 2 mM
Text: as §1

activated CD4+ T-cells [3] = assay: Extracellular acidification rate (ECAR), Seahorse analyzer, CD4+ T-cells; format: cell-based, mouse; settings: 2-DG 1 mM, Rapamycin 200 nM, Metformin 2 mM, Etomoxir 100 μM
Protocol: Measurement of lactate, glycolysis, glucose uptake/flux and cell death: Lactate concentration was measured in the synovial fluid or peritoneal lavage using the Lactate assay Kit (Biovision), according to the manufacturer's instructions. Glycolytic metabolism was measured with a Seahorse XF24 Extracellular Flux Analyzer. Briefly, T-cells were grown in high glucose RPMI-1640 supplemented with 10% FCS. […] T-cell viability upon lactate or metabolic drug treatment was assessed by trypan blue exclusion assay.

CO[C@H]1C[C@@H]2CC[C@@H](C)[C@@](O)(O2)C(=O)C(=O)N2CCCC[C@H]2C(=O)O[C@H]([C@H](C)C[C@@H]2CC[C@@H](O)[C@H](OC)C2)CC(=O)[C@H](C)/C=C(\C)[C@@H](O)[C@@H](OC)C(=O)[C@H](C)C[C@H](C)/C=C/C=C/C=C/1C [rapamycin]
naive T-lymphocyte motility (naive T-cells): decrease
chemokinesis in vivo: T-cell recruitment to the peritoneum (activated CD4+ T-cells [1]): decrease
chemokinesis in vitro towards CXCL10 of pre-treated activated CD4+ T-cells (activated CD4+ T-cells [2]): decrease
effect on glycolysis (ECAR trace) of metabolic drugs (activated CD4+ T-cells [3]): inhibition of glycolysis
